Source: PubChem BioAssay AID1347076 (National Center for Advancing Translational Sciences (NCATS), 2019)
In all, about 400,000 compounds went through this assay and about 13,000 (3.2%) were called active. The inconclusive results got no clear call from the source; some entries with a clear call stand among them for comparison. Calls come from the whole dose curve; as a rule, active = well fitted cell-killing curve with a large enough effect; inconclusive = small, poorly fitted or top-dose-only effect, or effect the other way; inactive = flat fitted curve, though single readings scatter. Potencies of inconclusive entries are doubtful fits and often do not repeat.

Assay: qHTS assay for MDR1-selective chemotherapeutics: Primary screen using the drug-selected MDR subline cells KB-V1; note: nearly all actives have a fitted effect of over 60% in size
Conditions: KB-V1 MDR cells viability, CellTiter-Glo, 72 h; series mostly up to 46.1 µM
Method in brief: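 Readout: CellTiter-Glo luminescence, 10 min after addition. Cells: KB-V1 MDR subline, 72 h at 37 degrees C with compound. Analysis: corrected, normalized data fitted to concentration-effect curves.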
Potency is the fitted concentration of half-maximal effect.

Row | Structure (SMILES) | Potency
1 | Clc1cccc(Nc2nc(-c3ccncc3)nc3ccccc23)c1 | inconclusive: 14.6 µM [cytotoxic, single point]
2 | COc1ccccc1Oc1ccc(S(=O)(=O)NCc2ccccn2)cc1 | inconclusive: 17.8 µM [cytotoxic, single point]
3 | CC(=O)c1nnn(-c2ccc([N+](=O)[O-])cc2)c1C | inactive
4 | COc1ccccc1NC(=O)c1ccc(Cl)c(S(=O)(=O)N2CCOCC2)c1 | inactive
5 | COCCNC(=O)C1(C)CCCN(Cc2ccc(Oc3ccccc3)cc2)C1 (stereo not drawn) | inconclusive: 23.1 µM [cytotoxic, single point]
6 | CCOC(=O)c1cnc2cc(C)nn2c1C | inactive
7 | CN(C(=O)COC(=O)C1c2ccccc2Oc2ccccc21)C1CCS(=O)(=O)C1 (stereo not drawn) | inconclusive: 11.6 µM [rising, partial curve, poor fit]
8 | Cc1cc(C(=O)CSc2nnc(-c3ccco3)o2)c(C)n1-c1ccc2c(c1)OCCO2 | inconclusive: 9.2 µM [cytotoxic, partial curve]
9 | O=C(CSc1nc(-c2ccc(F)cc2)cc(C(F)(F)F)n1)NCc1ccccc1 | inactive
10 | CCN(CC(=O)Nc1cc(C)c(Cl)cc1OC)CC(=O)NC1CCS(=O)(=O)C1 (stereo not drawn) | inconclusive: 23.1 µM [rising, partial curve, poor fit]
11 | N#Cc1cnc(=S)n(-c2cc(C(F)(F)F)cc(C(F)(F)F)c2)c1N | inconclusive: 25.9 µM [cytotoxic, single point]
12 | CC1(C(=O)Nc2ccc3c(c2)OCO3)Cc2c(-c3ccccc3)ccnc2O1 (stereo not drawn) | inconclusive: 29.1 µM [cytotoxic, single point]
13 | O=C(Cc1cccs1)NCCS(=O)(=O)N1CCN(c2ccccc2F)CC1 | inconclusive: 2.59 µM [cytotoxic, full curve]
14 | O=C(NC1CCCCC1)c1ccc(S(=O)(=O)N2CCCC2)cc1 | active: 16.4 µM
15 | O=C(/C=N/NC(=O)c1ccccc1Br)c1ccccc1 | inactive
16 | CCOc1ccccc1NC(=O)CSc1ncnc2c1oc1ccccc12 | inconclusive: 20.6 µM [cytotoxic, partial curve, poor fit]
17 | Cc1csc(NC(=O)[C@@H]2CCCN2C(=O)c2cccs2)n1 | inactive
18 | COc1c(F)cc2[nH]c3c(c2c1F)CCNC3=O | inconclusive: 2.91 µM [cytotoxic, partial curve]
19 | COc1ccc(CN2C(=O)c3ccccc3C2c2nnnn2C(C)C)cc1OC (stereo not drawn) | inconclusive: 2.91 µM [cytotoxic, partial curve, poor fit]
20 | Cn1c(SCC(=O)NC2CC2)nnc1C1CC1 | inconclusive: 6.51 µM [rising, partial curve]
21 | O=[N+]([O-])c1cc(-c2nc(-c3ccccc3)no2)ccc1NCC1CCCO1 (stereo not drawn) | inconclusive: 0.146 µM [rising, full curve]
22 | CCCOc1ccc(Cl)cc1CN1CCOCC1 | inconclusive: 23.1 µM [cytotoxic, single point]
23 | COc1ccc2ccccc2c1CN(C)Cc1ccccc1 | inconclusive: 29.1 µM [cytotoxic, single point]
24 | Cc1cccc(C(=O)Nc2c3c(nn2-c2ccc(Cl)cc2)CS(=O)(=O)C3)c1 | inactive

Row | Structure (SMILES) | Potency
25 | C=CCn1c(CCc2cc(C(C)(C)C)c(O)c(C(C)(C)C)c2)n[nH]c1=S | inconclusive: 8.2 µM [cytotoxic, partial curve]
26 | CCSc1c(-c2ccccc2)nc2c(C)cccc2c1C(=O)O | inactive
27 | COc1cc(OC)cc(C(=O)NCC(=O)OCC(=O)Nc2ncc(Cl)cc2Cl)c1 | inactive
28 | COCc1c(C(=O)OCc2c(C)noc2C)oc2ccccc12 | inconclusive: 20.6 µM [cytotoxic, partial curve]
29 | CC1CCN(C(=O)/C(=C\c2ccccc2F)NC(=O)c2ccccc2)CC1 | inconclusive: 9.2 µM [cytotoxic, partial curve]
30 | CCN(Cc1ccncc1)C(=O)c1cc(COc2ccc(C)c(C)c2)on1 | inactive
31 | CCc1ccc(C(=O)CSc2nnc(C3CC3)n2C2CC2)cc1 | active: 11.6 µM
32 | CCOC(=O)c1[nH]c(C)c(C(=O)OCC)c1C | inactive
33 | Cc1cc(Cl)ccc1OCCCC(=O)NNC(=O)c1ccncc1 | inconclusive: 25.9 µM [rising, single point]
34 | Cc1ccc(CCNC(=O)CS(=O)Cc2nc(-c3cccs3)oc2C)cc1 (stereo not drawn) | inconclusive: 13 µM [cytotoxic, partial curve]
35 | CCCCCN(C(=O)CCC(=O)OCc1ccccc1Cl)c1c(N)n(CCCC)c(=O)[nH]c1=O | inconclusive: 29.1 µM [rising, single point]
36 | COc1ccccc1NC(=O)N(Cc1ccco1)Cc1cc2cc(C)cc(C)c2[nH]c1=O | active: 18.4 µM
37 | COc1cc(/C=N/N2C(=O)CSC2=S)ccc1O | inactive
38 | COc1ccccc1NS(=O)(=O)c1cccc(NC(=O)Nc2ccccc2)c1 | active: 20.6 µM
39 | Oc1cccc(-c2nnc(-c3cccc(O)c3)nn2)c1 | inconclusive: 20.6 µM [cytotoxic, single point]
40 | Cc1oc2c(c1C(=O)Nc1cccc(Br)c1)C1=NCCN1C=N2 | inactive
41 | O=C(NC1CCCCCC1)C1c2ccccc2C(=O)N1Cc1cccs1 (stereo not drawn) | inconclusive: 8.2 µM [cytotoxic, partial curve]
42 | CC(C)=CC1C(C(=O)NCCc2ccccc2)C1(C)C (stereo not drawn) | inactive
43 | COc1ccc(CNC(=S)Nc2ccc3nc(N4CCN(C)CC4)cc(C)c3c2)cc1 | inactive
44 | O=S(=O)(Nc1ccc(-c2csc(-c3ccccc3)n2)cc1)c1ccc(F)cc1 | inconclusive: 29.1 µM [cytotoxic, single point]
45 | COc1ccc(NC(=O)C[C@H]2C(=O)N(c3ccccc3)C[C@@H]2Cc2ccccc2)cc1 | active: 14.6 µM
46 | Cn1cncc1C#Cc1c(C=O)[nH]c2ccccc12 | inconclusive: 16.4 µM [cytotoxic, single point]
47 | COc1ccc(N(Cc2cccs2)C(=O)c2ccccc2C)cc1 | inconclusive: 29.1 µM [cytotoxic, single point]
48 | Cn1c(=O)c2[nH]c(CCC3CCCC3)nc2n(C)c1=O | active: 23.1 µM
